From US20200172905 come the findings set out here.

Chains of the proteins cited; added tags and fusions are not shown.
UniProt Q62351, whole entry: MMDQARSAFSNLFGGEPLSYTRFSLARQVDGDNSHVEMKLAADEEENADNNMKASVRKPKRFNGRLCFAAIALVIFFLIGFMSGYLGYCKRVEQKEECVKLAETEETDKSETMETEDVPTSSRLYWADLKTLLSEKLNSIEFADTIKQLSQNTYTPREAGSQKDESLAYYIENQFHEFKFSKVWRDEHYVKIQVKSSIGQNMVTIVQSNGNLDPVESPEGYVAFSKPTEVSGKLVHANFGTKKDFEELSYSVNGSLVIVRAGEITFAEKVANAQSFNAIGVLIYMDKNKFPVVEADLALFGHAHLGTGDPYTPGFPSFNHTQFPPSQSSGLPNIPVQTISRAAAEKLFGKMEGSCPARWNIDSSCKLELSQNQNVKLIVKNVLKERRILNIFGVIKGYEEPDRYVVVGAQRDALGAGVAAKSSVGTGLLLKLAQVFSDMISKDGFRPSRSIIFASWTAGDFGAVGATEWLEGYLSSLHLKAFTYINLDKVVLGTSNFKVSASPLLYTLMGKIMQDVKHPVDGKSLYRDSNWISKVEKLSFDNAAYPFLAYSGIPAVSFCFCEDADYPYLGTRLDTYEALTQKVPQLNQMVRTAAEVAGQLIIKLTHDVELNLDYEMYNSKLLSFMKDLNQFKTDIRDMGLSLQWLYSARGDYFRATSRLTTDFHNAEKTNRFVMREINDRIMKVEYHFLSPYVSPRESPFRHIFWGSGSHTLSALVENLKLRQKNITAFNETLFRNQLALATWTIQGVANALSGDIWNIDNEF

Where cells or extracts were used, other partners may take part.

The target in data set [1] is Transferrin receptor (TfR) on HepG2 / PANC-1 cells (Homo sapiens) (UniProt P02786). Briefly: binding assay. Conditions: 2'-F (library of 2'F RNAs; positions not stated), protein on the cell surface, label: biotin (SPR).
Data set [2] has as its target Transferrin receptor (TfR) on LTPA cells (Mus musculus) (UniProt Q62351). Briefly: binding assay. To be noted: 2'-F (library of 2'F RNAs; positions not stated); 200 nM Cy3 aptamer, 2 h, live-cell confocal; internalised into mouse LTPA, cross-reactive between species; protein on the cell surface; label: biotin (SPR), Cy3 (cell imaging); variant of TR14 (87-mer).

“GGGAGACAAGAAUAAACGCUCAAUGCGUUCACGUUUAUUCACAUUUUUGAAUUGAGCAUGAGCUUCGACAGGAGGCUCACAACAGGC [TR14 (87-mer)]”: in data set [1] (internalised into HepG2 cells, CITED WO 2006/061386), the binding result is recorded as “binds”. In the case of “GGGGCUCAAUGCGUUCACGUUUAUUCACAUUUUUGAAUUGAGC [TR14 S2 (43-mer)]”, the binding result in data set [1] (internalised into HepG2 cells, CITED WO 2006/061386, variant of TR14 (87-mer)) was “binds”. Turning to “UUUAUUCACAUUUUUGAAUUGA [TR14 S1-3 (22-mer)]”, the binding result in data set [2] is “binds”; in data set [1] (200 nM Cy3 aptamer, 2 h, live-cell confocal, internalised into HepG2 and PANC-1, 5 mM MgCl2, Cy3 (cell imaging), variant of TR14 (87-mer)), “binds”.
